Assay results published in US20210017532A1 (INSTITUTE OF GENETICS AND DEVELOPMENTAL BIOLOGY CHINESE …, published 2021).
Results are given in words; binding and its absence hold for the method and conditions named. For some of these results: In cells and extracts the contact can be indirect. Some results given as binding are weak or reduced against the parent protein; the word gives no strength. Sequences can lack the tags named with a protein.

Experiments:
OsSPL14 [1] = molecular target: T1, OsSPL14 (rice, UniProt Q7EXZ2 1-417); assay: co-immunoprecipitation
T1 construct: also called SBP-domain transcription factor OsSPL14
T1 sequence (looked up): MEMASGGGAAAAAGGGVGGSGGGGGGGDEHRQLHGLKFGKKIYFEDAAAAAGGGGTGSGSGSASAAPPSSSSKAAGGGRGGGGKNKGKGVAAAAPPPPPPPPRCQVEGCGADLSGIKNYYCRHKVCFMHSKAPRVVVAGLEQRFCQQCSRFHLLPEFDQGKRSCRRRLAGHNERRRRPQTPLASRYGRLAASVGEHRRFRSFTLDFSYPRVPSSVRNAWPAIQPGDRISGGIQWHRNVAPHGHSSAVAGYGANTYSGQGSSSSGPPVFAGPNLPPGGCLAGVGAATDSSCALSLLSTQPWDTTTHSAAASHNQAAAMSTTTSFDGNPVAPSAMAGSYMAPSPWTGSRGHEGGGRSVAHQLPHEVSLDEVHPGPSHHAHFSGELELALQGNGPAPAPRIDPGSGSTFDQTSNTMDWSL

OsSPL14 [2] = molecular target: T1, OsSPL14; assay: co-immunoprecipitation, immunoblot
[3] = molecular target: T2, N-terminus of YFP-tagged SBP-domain of OsSPL14 (rice) (UniProt Q7EXZ2); assay: deletion analysis, BiFC in rice protoplasts
T2 sequence (looked up): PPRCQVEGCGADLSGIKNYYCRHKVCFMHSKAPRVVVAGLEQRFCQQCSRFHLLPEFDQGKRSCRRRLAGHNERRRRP

His-OsUBC13 (rice) = molecular target: T3, His-OsUBC13 (rice) (UniProt Q9FZ48); assay: in vitro GST pull-down, immunoblot with anti-His and anti-GST
T3 sequence: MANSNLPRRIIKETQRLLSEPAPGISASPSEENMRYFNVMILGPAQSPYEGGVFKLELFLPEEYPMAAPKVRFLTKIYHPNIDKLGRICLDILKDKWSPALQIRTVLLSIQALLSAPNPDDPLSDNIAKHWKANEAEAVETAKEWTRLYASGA

B1: OsOTUB1.1-GFP (enzyme, not shown: large carriers)
chain: MGGDYYHSCCGDPDPDLRAPEGPKLPYVGDKEPLSTLAAEFQSGSPILQEKIKLLGEQYDALRRTRGDGNCFYRSFMFSYLEHILETQDKAEVERILKKIEQCKKTLADLGYIEFTFEDFFSIFIDQLESVLQGHESSIGAEELLERTRDQMVSDYVVMFFRFVTSGEIQRRAEFFEPFISGLTNSTVVQFCKASVEPMGEESDHVHIIALSDALGVPIRVMYLDRSSCDAGNISVNHHDFSPEANSSDGAAAAEKPYITLLYRPGHYDILYPK
B1 was tested, and the binding (OsSPL14 [1]) was “binds” and the binding (OsSPL14 [2]) was “binds”.

B2: C-terminus of YFP-tagged OsOTUB1.1 (enzyme)
chain: MGGDYYHSCCGDPDPDLRAPEGPKLPYVGDKEPLSTLAAEFQSGSPILQEKIKLLGEQYDALRRTRGDGNCFYRSFMFSYLEHILETQDKAEVERILKKIEQCKKTLADLGYIEFTFEDFFSIFIDQLESVLQGHESSIGAEELLERTRDQMVSDYVVMFFRFVTSGEIQRRAEFFEPFISGLTNSTVVQFCKASVEPMGEESDHVHIIALSDALGVPIRVMYLDRSSCDAGNISVNHHDFSPEANSSDGAAAAEKPYITLLYRPGHYDILYPK
notes: BiFC construct expressed in rice protoplasts; also called cYFP-OsOTUB1; cYFP-OsOTUB1.1; not shown: C-terminal fragment of YFP from vector pSY-735-35S-cYFP-HA
B2 was tested, and the binding [3] was “binds”.

B3: recombinant GST-OsOTUB1 fusion protein (enzyme, not shown: a dimerising Fc or GST)
chain: MGGDYYHSCCGDPDPDLRAPEGPKLPYVGDKEPLSTLAAEFQSGSPILQEKIKLLGEQYDALRRTRGDGNCFYRSFMFSYLEHILETQDKAEVERILKKIEQCKKTLADLGYIEFTFEDFFSIFIDQLESVLQGHESSIGAEELLERTRDQMVSDYVVMFFRFVTSGEIQRRAEFFEPFISGLTNSTVVQFCKASVEPMGEESDHVHIIALSDALGVPIRVMYLDRSSCDAGNISVNHHDFSPEANSSDGAAAAEKPYITLLYRPGHYDILYPK
In the case of B3, the binding (His-OsUBC13 (rice)) is reported as “binds”.
